PubChem BioAssay AID1224828 | NIAID – 2016

Test: 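Knock-downs that increase or decrease LPS-induced p65 nuclear translocation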 (primary screen)
System: mouse RAW264.7 G9 macrophage reporter cells (GFP-p65, Tnf promoter-mCherry)
Knock-down reagent: siRNA pool against mouse genes, 100 nM
Duration: 2 days siRNA transfection, then 40 min LPS before fixation
Treatment: LPS (Salmonella minnesota R595) at 10 ng/ml
Read-out: 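Microscopy ratio of nuclear to perinuclear-ring GFP-p65 signal, scaled to the plate median; gene score is the average of two replicate robust z-scores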
Direction: p65 translocation robust z-score: higher = more nuclear NF-kappaB p65 after LPS than the plate median; nuclear/cytoplasmic p65 ratio: higher = more nuclear NF-kappaB p65
Active means: 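Called active when z exceeds 3.3 or falls under -1.56 (median of Tlr4 controls), giving activity score of at least 50; no calls for control wells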
Calls: active = hit (p65 shift raised or lowered); inactive = no clear change
The whole screen tested about 17,000 reagents; shown is an unselected part. 762 of them (4.5%) were called active. 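Active calls include both raised and lowered p65 entry, mostly lowered; wells with fewer than 50 cells lack a z-score.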 The raw values are shown without normalisation. Entries without a mark were called inactive. Reagents against one gene are numbered here.

p65 translocation robust z-score	nuclear/cytoplasmic p65 ratio, rep 1	nuclear/cytoplasmic p65 ratio, rep 2	low cell count flag	Gene	pool no.
-0.36	1.37	1.22	enough cells to score	Omd	1
-1.85 (active)	1.35	1.17	enough cells to score	Or3a1b	1
1.65	1.57	1.48	enough cells to score	Pcnx4	1
1.3	1.79	1.89	enough cells to score	Ankrd17	1
0.9	1.79	1.57	enough cells to score	Scn11a	1
	1.1	1.48	fewer than 50 cells per well; well left out of scoring	Pramel39-ps	1
0.13	1.35	1.32	enough cells to score	Yju2b	1
-0.08	1.39	1.4	enough cells to score	Hagh	1
0.75	1.71	1.4	enough cells to score	Psph	1
-1.71 (active)	1.3	1.3	enough cells to score	Hc	1
0.75	1.6	1.41	enough cells to score	Med26	1
-0.09	1.5	1.34	enough cells to score	Pcdhb3	1
-0.52	1.54	1.65	enough cells to score	Smtnl2	1
	1.48	1.16	fewer than 50 cells per well; well left out of scoring	Slfn10	1
-0.01	1.5	1.33	enough cells to score	Enam	1
-0.8	1.32	1.56	enough cells to score	Atp6v1c1	1
0.31	1.48	1.41	enough cells to score	Gja1	1
-0.38	1.43	1.33	enough cells to score	Cybb	1
0.22	1.34	1.88	enough cells to score	Trappc14	1
0.71	1.62	1.81	enough cells to score	Arl4d	1
-0.59	1.58	1.37	enough cells to score	Arl4d	2
	1.54	1.58	fewer than 50 cells per well; well left out of scoring	Nkap	1
1.32	1.7	1.93	enough cells to score	Aif1	1
0.76	1.71	1.88	enough cells to score	Crisp3	1
-1.23	1.43	1.27	enough cells to score	Top3b	1
-0.78	1.59	1.42	enough cells to score	Oit3	1
0.71	1.59	2.07	enough cells to score	Morn4	1
0.5	1.58	1.39	enough cells to score	Eya3	1
	1.23	1.04	fewer than 50 cells per well; well left out of scoring	BC061237	1
	1.46	1.19	fewer than 50 cells per well; well left out of scoring	Vmn1r74	1
-0.92	1.65	1.44	enough cells to score	Dpf1	1
-0.8	1.36	1.5	enough cells to score	Gpr152	1
-0.97	1.59	1.22	enough cells to score	Mecom	1
-0.6	1.33	1.3	enough cells to score	Mecom	2
1.23	1.56	1.57	enough cells to score	Hoxd11	1
-0.73	1.31	1.28	enough cells to score	Mmp12	1
0.24	1.71	1.59	enough cells to score	Usp31	1
0.15	1.63	1.47	enough cells to score	Izumo1r	1
0.22	1.47	1.55	enough cells to score	Bivm	1
-0.92	1.53	1.43	enough cells to score	Slc9c1	1

Records above marked active, once more:
p65 translocation robust z-score	nuclear/cytoplasmic p65 ratio, rep 1	nuclear/cytoplasmic p65 ratio, rep 2	low cell count flag	Gene	pool no.
-1.85 (active)	1.35	1.17	enough cells to score	Or3a1b	1
-1.71 (active)	1.3	1.3	enough cells to score	Hc	1
